Results taken from patent US20140030739A1.
Results are given in words; binding and its absence hold for the method and conditions named. Some results given as binding are weak or reduced against the parent protein; the word gives no strength.

Amino acid sequences for entries named in this document (tags omitted). A change or cut given only in a name is not applied to a line headed by its entry.
UniProt P60983: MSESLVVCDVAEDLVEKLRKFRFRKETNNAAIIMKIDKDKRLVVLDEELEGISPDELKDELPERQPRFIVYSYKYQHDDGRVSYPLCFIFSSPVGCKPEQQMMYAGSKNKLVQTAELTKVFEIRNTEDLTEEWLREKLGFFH

Key:
[1] = target: glia maturation factor, beta [Homo sapiens] (GMF-B), soluble form (Homo sapiens) (UniProt P60983); experiment: antigen isolation, tryptic digest and MALDI-MS identification
[2] = target: glia maturation factor, beta [Homo sapiens] (GMF-B), soluble form (Homo sapiens) (UniProt P60983); experiment: Western blot of MDA-MB-231 culture supernatant
[3] = target: glia maturation factor, beta [Homo sapiens] (GMF-B), soluble form (Homo sapiens) (UniProt P60983); experiment: immunohistochemistry on AD brain tissue sections, mAb at 1:400

Measured: binding

B1: Alper-sGMF-B mAb (antibody, IgG1, V domains shown)
VH: VQLQQSGPELVKPGASVKMSCKASGYTFTSYVMHWVKQKPGQGLEWIGYINPYNEGTKYNEKFKGKATLTSDKSSSTAYMELSSLTSEDSAVYYCARSTMITTGFAYWGQGTTVT
VL: DILMTQSPSSLSASLGGKVTITCKASQDINKYIAWYQHKPGEGPRLLIHYTSTLQPGIPSRFSGSGSGRDYSFSITNLEPEDIATYYCLQYDNLWTFGGGTKLEIK
binds: [1] | [2] | [3]
